Measured values as given in patent EP1420018A1, “Pyrido[1,2-a]benzimidazole derivatives useful in treating central nervous system disorders” (Ortho-McNeil Pharmaceutical, Inc., priority 1996, dated 1998).
Read-outs that look alike come from different tables or passages of the source. At least one structure is not confirmed: it was looked up by name or label, or the drawing left a doubt.

Target: benzodiazepine site of the GABA-A receptor
Experiment: Benzodiazepine Receptor Binding Assay (inhibition of 3H-flunitrazepam binding)
Conditions: read-out: GABAA Receptor Binding IC50

| Compound | IC50 [nM] | IC50 (inhibition of 3H-flunitrazepam (ca. 3 nM) binding to membranes, 25°C, over 10,000 = not active) [nM] |
| --- | --- | --- |
| CC(=O)OCCN1C2=C(C(=O)Nc3ccccc3F)C(=O)CCN2c2ccc(F)cc21 [Compound 119, 7-Fluoro-1,2-dihydro-5-(2-acetoxyethyl)-3-oxo-N-(2-fluorophenyl)pyrido[1,2-a]benzimidazole-4-carboxamide] | 0.25 | – |
| O=C1CCN2C(=C1C(=O)Nc1ccccc1F)N(CC(O)CO)c1cc(F)ccc12 (stereo not drawn) [Compound 162, 7-Fluoro-1,2-dihydro-5-[2,3-dihydroxypropyl]-3-oxo-N-(2-fluorophenyl)pyrido[1,2-a]benzimidazole-4-carboxamide] | 16 | – |
| C[S+]([O-])CCN1C2=C(C(=O)Nc3ccccc3F)C(=O)CCN2c2ccc(F)cc21 (stereo not drawn) [Compound 183, 7-Fluoro-1,2-dihydro-5-[2-(methylsulfoxy)ethyl]-3-oxo-N-(2-fluorophenyl)pyrido[1,2-a]benzimidazole-4-carboxamide] | – | 6.19 |
